# These are yes or no findings as the source states them, for the method shown. In cells and extracts the contact can be indirect. Some binding calls cover weakened binding; strength is not graded here. Tags and fused reporters may be left off the sequences shown.
# Target: T1, Myc-DUSP4 (UniProt Q13115)
# T1 sequence: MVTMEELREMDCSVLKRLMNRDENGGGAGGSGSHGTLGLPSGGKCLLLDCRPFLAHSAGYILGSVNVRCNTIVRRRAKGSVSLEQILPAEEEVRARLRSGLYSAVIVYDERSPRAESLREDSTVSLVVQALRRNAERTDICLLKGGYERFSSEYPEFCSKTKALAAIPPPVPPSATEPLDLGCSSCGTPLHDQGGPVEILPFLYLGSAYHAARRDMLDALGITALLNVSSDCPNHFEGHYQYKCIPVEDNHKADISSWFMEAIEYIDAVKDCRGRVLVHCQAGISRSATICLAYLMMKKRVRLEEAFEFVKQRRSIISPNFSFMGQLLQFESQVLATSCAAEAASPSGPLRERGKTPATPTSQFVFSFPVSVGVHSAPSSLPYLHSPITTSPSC
# Assay: co-IP; lysates of HEK293T cells transfected with ectopic Flag-DOCK1 and Myc-DUSP4; precipitating antibody and buffer not told
substance,measurement,value
Flag-DOCK1 (dedicator of cytokinesis 1) (from UniProt Q14185 1-1865),binding,binds

# From paper PMC10651491
